According to the supplement of paper PMC10849652:
The other results are listed elsewhere or left out.

Amino acid sequences for entries named in this document (tags omitted). A change or cut given only in a name is not applied to a line headed by its entry.
UniProt Q9BUK6: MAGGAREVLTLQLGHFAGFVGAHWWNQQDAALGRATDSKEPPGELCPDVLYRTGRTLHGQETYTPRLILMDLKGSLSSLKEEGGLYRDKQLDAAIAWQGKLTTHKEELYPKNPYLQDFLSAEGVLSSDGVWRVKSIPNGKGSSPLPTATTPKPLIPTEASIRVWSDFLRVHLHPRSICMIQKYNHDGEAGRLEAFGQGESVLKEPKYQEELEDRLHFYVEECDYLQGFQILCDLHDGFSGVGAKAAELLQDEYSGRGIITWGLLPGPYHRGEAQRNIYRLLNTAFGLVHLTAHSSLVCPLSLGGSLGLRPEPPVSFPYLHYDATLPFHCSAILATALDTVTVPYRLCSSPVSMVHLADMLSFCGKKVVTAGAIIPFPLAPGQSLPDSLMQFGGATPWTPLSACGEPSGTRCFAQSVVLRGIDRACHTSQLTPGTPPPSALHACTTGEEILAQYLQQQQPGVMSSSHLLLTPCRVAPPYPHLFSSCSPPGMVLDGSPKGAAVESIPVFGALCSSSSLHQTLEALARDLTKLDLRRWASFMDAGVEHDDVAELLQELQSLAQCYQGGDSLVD
UniProt P11586, whole entry, looked up: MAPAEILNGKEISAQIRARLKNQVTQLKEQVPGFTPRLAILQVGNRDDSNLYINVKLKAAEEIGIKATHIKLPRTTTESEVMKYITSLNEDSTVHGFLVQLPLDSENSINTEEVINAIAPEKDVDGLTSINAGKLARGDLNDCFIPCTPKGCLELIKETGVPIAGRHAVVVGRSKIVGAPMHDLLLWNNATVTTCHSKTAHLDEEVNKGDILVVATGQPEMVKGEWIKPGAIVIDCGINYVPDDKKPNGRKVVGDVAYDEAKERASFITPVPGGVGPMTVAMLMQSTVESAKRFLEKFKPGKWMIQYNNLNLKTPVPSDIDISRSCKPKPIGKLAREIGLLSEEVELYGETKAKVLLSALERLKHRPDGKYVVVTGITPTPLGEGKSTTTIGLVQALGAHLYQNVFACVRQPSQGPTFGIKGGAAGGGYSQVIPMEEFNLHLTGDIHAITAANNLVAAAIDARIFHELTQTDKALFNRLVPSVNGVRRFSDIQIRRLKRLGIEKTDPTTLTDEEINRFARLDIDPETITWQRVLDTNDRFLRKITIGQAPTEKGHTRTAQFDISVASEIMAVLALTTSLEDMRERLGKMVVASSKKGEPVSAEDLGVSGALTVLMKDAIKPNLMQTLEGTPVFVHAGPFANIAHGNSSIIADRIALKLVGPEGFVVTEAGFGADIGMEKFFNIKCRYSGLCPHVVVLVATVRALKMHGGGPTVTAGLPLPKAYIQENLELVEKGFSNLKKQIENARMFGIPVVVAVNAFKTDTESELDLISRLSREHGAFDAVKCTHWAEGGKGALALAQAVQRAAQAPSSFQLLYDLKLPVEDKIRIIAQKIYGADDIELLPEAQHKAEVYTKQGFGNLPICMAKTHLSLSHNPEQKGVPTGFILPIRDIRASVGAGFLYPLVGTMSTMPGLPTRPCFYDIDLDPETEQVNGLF
UniProt P03905, whole entry, looked up: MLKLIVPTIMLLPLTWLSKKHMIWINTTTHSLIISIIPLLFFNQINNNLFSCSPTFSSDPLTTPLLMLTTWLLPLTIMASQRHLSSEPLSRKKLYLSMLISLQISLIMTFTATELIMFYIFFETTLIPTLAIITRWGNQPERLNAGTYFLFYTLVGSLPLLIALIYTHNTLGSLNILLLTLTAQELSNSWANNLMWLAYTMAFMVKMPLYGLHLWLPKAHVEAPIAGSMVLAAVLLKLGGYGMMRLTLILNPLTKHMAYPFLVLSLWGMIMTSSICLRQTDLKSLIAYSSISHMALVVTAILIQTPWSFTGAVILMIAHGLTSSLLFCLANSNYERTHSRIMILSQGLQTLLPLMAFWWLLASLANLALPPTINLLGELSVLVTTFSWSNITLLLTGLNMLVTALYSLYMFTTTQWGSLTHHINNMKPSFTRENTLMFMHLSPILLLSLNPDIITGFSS
UniProt Q8NCE2: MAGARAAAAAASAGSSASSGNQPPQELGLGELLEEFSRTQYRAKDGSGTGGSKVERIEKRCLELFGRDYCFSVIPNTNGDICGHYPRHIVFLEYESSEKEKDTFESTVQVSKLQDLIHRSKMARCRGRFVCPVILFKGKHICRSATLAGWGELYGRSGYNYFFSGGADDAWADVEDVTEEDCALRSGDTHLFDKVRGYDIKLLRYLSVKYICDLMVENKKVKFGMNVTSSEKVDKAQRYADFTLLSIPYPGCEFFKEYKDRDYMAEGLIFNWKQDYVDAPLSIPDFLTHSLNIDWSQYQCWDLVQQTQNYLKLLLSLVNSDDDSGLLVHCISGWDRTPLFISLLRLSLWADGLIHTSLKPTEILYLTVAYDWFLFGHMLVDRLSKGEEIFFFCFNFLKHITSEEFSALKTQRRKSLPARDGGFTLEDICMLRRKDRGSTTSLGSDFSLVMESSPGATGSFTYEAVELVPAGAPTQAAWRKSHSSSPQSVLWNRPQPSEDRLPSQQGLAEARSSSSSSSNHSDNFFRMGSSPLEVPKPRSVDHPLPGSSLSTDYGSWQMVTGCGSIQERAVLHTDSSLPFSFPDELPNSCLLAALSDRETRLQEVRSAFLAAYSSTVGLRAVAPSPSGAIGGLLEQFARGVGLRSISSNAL
UniProt P35580, whole entry, looked up: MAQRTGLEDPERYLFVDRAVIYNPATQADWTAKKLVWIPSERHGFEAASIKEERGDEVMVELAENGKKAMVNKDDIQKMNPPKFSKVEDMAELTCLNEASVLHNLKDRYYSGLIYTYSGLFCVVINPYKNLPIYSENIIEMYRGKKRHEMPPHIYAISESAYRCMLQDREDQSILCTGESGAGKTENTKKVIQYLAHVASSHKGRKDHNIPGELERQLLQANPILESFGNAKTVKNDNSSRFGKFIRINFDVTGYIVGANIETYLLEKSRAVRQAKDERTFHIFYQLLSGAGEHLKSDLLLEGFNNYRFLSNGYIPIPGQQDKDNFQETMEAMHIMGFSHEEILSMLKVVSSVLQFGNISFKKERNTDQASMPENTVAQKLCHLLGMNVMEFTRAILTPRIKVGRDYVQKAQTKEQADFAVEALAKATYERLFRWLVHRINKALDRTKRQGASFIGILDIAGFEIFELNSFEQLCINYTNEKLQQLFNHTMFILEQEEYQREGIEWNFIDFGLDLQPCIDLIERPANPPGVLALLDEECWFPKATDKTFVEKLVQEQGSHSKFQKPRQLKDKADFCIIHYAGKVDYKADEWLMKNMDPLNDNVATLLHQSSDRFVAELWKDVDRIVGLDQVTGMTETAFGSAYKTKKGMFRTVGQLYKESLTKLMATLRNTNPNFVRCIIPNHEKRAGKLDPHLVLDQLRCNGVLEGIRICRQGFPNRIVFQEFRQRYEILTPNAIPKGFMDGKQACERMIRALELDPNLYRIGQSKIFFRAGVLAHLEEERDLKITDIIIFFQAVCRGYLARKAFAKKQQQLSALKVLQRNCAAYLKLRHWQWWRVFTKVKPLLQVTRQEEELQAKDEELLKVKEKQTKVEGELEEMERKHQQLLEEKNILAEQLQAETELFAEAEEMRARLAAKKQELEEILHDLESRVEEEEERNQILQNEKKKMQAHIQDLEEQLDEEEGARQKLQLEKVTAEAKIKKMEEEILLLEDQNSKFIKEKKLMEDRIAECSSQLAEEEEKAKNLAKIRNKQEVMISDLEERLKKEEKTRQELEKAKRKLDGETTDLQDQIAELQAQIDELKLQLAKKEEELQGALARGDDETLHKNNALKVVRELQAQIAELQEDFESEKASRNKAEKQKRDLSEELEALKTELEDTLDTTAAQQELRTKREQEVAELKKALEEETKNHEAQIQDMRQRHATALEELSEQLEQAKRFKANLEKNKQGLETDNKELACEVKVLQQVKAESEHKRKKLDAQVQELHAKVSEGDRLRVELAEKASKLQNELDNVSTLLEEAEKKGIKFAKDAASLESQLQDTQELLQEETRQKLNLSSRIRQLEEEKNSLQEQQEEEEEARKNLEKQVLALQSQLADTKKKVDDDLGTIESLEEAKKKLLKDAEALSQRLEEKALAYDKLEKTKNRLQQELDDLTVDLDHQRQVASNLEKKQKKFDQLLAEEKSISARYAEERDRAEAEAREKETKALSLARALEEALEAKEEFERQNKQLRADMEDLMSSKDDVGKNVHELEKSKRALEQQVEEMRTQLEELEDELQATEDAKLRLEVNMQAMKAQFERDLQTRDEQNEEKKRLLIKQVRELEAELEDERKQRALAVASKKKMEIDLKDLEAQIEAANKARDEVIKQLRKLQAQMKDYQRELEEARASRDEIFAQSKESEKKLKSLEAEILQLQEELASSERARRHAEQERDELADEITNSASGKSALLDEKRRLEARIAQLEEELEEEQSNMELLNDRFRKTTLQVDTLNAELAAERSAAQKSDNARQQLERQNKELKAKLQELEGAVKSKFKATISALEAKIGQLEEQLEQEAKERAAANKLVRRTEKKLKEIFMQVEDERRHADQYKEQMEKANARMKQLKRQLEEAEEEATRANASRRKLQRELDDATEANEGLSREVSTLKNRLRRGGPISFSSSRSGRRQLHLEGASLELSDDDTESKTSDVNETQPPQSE
UniProt P00846: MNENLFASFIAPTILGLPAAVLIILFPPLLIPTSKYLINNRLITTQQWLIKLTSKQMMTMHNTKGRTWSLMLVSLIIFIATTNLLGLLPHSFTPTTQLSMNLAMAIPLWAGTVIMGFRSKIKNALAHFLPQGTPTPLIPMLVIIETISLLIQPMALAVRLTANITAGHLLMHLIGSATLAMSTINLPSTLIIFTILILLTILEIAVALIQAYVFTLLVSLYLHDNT
UniProt P20585: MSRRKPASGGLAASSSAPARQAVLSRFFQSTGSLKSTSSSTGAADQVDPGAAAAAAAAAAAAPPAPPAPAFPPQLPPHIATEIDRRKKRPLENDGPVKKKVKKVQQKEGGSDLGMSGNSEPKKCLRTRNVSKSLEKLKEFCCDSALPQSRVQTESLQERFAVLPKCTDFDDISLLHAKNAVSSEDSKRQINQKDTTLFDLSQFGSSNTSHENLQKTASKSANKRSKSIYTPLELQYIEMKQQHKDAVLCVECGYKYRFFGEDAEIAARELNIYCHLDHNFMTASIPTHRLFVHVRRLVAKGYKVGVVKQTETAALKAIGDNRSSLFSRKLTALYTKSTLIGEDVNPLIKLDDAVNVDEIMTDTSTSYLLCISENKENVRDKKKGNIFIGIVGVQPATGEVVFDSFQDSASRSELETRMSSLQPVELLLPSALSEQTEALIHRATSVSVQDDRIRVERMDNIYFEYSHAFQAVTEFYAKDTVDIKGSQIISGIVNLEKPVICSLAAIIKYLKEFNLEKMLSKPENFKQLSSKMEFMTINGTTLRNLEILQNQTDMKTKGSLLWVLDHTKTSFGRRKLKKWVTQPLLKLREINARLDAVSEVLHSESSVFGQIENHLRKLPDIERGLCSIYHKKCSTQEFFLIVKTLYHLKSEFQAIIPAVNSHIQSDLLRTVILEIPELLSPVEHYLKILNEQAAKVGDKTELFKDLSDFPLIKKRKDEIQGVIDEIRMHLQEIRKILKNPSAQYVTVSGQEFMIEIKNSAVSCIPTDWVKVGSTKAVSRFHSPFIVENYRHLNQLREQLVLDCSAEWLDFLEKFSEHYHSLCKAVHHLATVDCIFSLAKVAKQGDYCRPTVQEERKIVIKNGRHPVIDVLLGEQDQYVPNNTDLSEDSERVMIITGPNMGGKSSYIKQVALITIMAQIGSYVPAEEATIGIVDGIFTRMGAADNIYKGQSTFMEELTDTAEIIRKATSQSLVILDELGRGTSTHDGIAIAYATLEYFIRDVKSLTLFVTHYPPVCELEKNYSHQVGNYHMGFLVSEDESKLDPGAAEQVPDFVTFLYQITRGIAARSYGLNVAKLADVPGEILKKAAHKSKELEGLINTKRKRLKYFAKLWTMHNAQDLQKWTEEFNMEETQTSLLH
UniProt Q969V5: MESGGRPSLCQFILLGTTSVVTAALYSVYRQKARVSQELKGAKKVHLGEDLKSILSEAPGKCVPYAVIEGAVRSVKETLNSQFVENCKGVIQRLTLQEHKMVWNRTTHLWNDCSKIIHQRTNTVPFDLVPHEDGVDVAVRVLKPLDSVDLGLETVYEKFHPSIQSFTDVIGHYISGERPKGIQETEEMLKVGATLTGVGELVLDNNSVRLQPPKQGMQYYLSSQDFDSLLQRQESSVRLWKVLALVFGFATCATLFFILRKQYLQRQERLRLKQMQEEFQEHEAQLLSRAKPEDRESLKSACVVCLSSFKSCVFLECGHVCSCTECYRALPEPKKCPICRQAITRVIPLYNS

How the values were obtained:
Assay in all cases: log2 fold change, soluble protein after heating vs DMSO (PISA); higher = thermal stabilisation; K562 cells, 10 uM, 30 min; active = over 0.2 and 3.5 SD of the protein, either way, in both replicates (recomputed)
saracatinib = compound: CN1CCN(CCOc2cc(OC3CCOCC3)c3c(Nc4c(Cl)ccc5c4OCO5)ncnc3c2)CC1 [saracatinib]
Method in brief: (§1)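 K562 cells at 2×10^6 cells/mL were given 10 μM compound for 30 min. Aliquots then went through 3 min of heating across 48°C-58°C, were pooled, and were extracted in PBS with 0.5% NP-40 at 4°C, and the supernatant after 21,000xg for 90 min was quantified by TMTpro 16plex LC-MS/MS with channel sums equalised. Thermal stability relative to control samples, from duplicates, is given as log2 fold change.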

sotrastaurin = compound: CN1CCN(c2nc(C3=C(c4c[nH]c5ccccc45)C(=O)NC3=O)c3ccccc3n2)CC1 [sotrastaurin]
Method in brief: as §1

Tubastatin A = compound: CN1CCc2c(c3ccccc3n2Cc2ccc(C(=O)NO)cc2)C1 [Tubastatin A]
Method in brief: as §1

[1] = compound: CNC(=O)C1=CC=CC=C1NC2=NC(=NC=C2Cl)NC3=C(C=C(C=C3)N4CCOCC4)OC
Method in brief: as §1

defactinib = compound: CNC(=O)c1ccc(Nc2ncc(C(F)(F)F)c(NCc3nccnc3N(C)S(C)(=O)=O)n2)cc1 [defactinib]
Method in brief: as §1

rucaparib = compound: CNCc1ccc(-c2[nH]c3cc(F)cc4c3c2CCNC4=O)cc1 [rucaparib]
Method in brief: as §1

[2] = compound: CNc1nc(-c2ccc3c(N)n[nH]c3c2)cc(N2C[C@@H](C(=O)NC3CCCCC3)CC[C@H]2C)n1
Method in brief: as §1

encorafenib = compound: COC(=O)N[C@@H](C)CNc1nccc(-c2cn(C(C)C)nc2-c2cc(Cl)cc(NS(C)(=O)=O)c2F)n1 [encorafenib]
Method in brief: as §1

[3] = compound: COC(=O)[C@H](CCSC)NC(=O)C1=C(C=C(C=C1)NC[C@H](CS)N)C2=CC=CC=C2
Method in brief: as §1

[4] = compound: COC1=CC=C(C=C1)CN2C=CC3=C2C=C(C=C3)C(=O)NO
Method in brief: as §1

filanesib = compound: CON(C)C(=O)N1N=C(c2cc(F)ccc2F)S[C@@]1(CCCN)c1ccccc1 [filanesib]
Method in brief: as §1

zotarolimus = compound: CO[C@H]1C[C@@H]2CC[C@@H](C)[C@@](O)(O2)C(=O)C(=O)N2CCCC[C@H]2C(=O)O[C@H]([C@H](C)C[C@@H]2CC[C@H](n3cnnn3)[C@H](OC)C2)CC(=O)[C@H](C)/C=C(\C)[C@@H](O)[C@@H](OC)C(=O)[C@H](C)C[C@H](C)/C=C/C=C/C=C/1C [zotarolimus]
Method in brief: as §1

idasanutlin = compound: COc1cc(C(=O)O)ccc1NC(=O)[C@@H]1N[C@@H](CC(C)(C)C)[C@](C#N)(c2ccc(Cl)cc2F)[C@H]1c1cccc(Cl)c1F [idasanutlin]
Method in brief: as §1

alisertib = compound: COc1cc(Nc2ncc3c(n2)-c2ccc(Cl)cc2C(c2c(F)cccc2OC)=NC3)ccc1C(=O)O [alisertib]
Method in brief: as §1

[5] = compound: COc1cc2nc(-c3cc(F)ccc3O)nc(N[C@@H]3CNC[C@H]3C(C)(C)O)c2cc1OC
Method in brief: as §1

gefitinib = compound: COc1cc2ncnc(Nc3ccc(F)c(Cl)c3)c2cc1OCCCN1CCOCC1 [gefitinib]
Method in brief: as §1

[6] = compound: COc1cccc2cc(-c3nc([C@H]4CC[C@H](C(=O)O)CC4)n4ncnc(N)c34)[nH]c12
Method in brief: as §1

lapatinib = compound: CS(=O)(=O)CCNCc1ccc(-c2ccc3ncnc(Nc4ccc(OCc5cccc(F)c5)c(Cl)c4)c3c2)o1 [lapatinib]
Method in brief: as §1

pictilisib = compound: CS(=O)(=O)N1CCN(Cc2cc3nc(-c4cccc5[nH]ncc45)nc(N4CCOCC4)c3s2)CC1 [pictilisib]
Method in brief: as §1

Measured: log2 fold change

MRPS24 (UniProt Q96EL2)
inactive: saracatinib -0.153 | sotrastaurin -0.124 | Tubastatin A 0.024 | [1] 0.067 | defactinib 0.041 | rucaparib 0.153 | [2] 0.137 | encorafenib 0.08 | [3] -0.108 | [4] -0.153 | filanesib 0.047 | zotarolimus 0.088 | idasanutlin -0.134 | alisertib -0.104 | [5] 0.096 | gefitinib -0.056 | [6] -0.014 | lapatinib 0.047 | pictilisib -0.174

MRPS18B (UniProt Q9Y676)
inactive: saracatinib -0.038 | sotrastaurin 0.082 | Tubastatin A 0.125 | [1] 0.007 | defactinib -0.016 | rucaparib 0.065 | [2] 0.225 | encorafenib 0.034 | [3] -0.027 | [4] 0.011 | filanesib 0.065 | zotarolimus 0.035 | idasanutlin -0.205 | alisertib 0.069 | [5] 0.024 | gefitinib 0.078 | [6] 0.018 | lapatinib -0.005 | pictilisib -0.106

MRPS6 (UniProt P82932)
active: idasanutlin -0.275
inactive: saracatinib -0.197 | sotrastaurin -0.058 | Tubastatin A 0.011 | [1] -0.003 | defactinib -0.023 | rucaparib 0.056 | [2] 0.092 | encorafenib 0.016 | [3] -0.126 | [4] 0.204 | filanesib -0.019 | zotarolimus 0.038 | alisertib 0.029 | [5] 0.012 | gefitinib -0.051 | [6] -0.081 | lapatinib 0.035 | pictilisib -0.003

MSTO1 (UniProt Q9BUK6)
active: [2] 0.235
inactive: saracatinib 0.047 | sotrastaurin 0.025 | Tubastatin A 0.023 | [1] -0.031 | defactinib -0.045 | rucaparib -0.029 | encorafenib 0.04 | [3] 0.034 | [4] -0.022 | filanesib -0.078 | zotarolimus -0.045 | idasanutlin -0.08 | alisertib 0.007 | [5] 0.024 | gefitinib -0.018 | [6] 0.025 | lapatinib -0.009 | pictilisib 0.021

MRPS10 (UniProt P82664)
inactive: saracatinib -0.029 | sotrastaurin -0.076 | Tubastatin A 0.035 | [1] -0.034 | defactinib -0.071 | rucaparib 0.006 | [2] 0.097 | encorafenib 0.014 | [3] -0.055 | [4] -0.041 | filanesib 0.045 | zotarolimus 0.08 | idasanutlin -0.088 | alisertib -0.014 | [5] -0.017 | gefitinib -0.042 | [6] 0.012 | lapatinib 0.069 | pictilisib -0.112

MTHFD1 (UniProt P11586)
inactive: saracatinib 0.004 | sotrastaurin 0.018 | Tubastatin A -0.009 | [1] 0.003 | defactinib -0.046 | rucaparib -0.032 | [2] 0.058 | encorafenib 0.04 | [3] -0.036 | [4] 0.048 | filanesib -0.07 | zotarolimus 0.04 | idasanutlin -0.036 | alisertib -0.001 | [5] 0.017 | gefitinib 0.055 | [6] -0.015 | lapatinib 0.014 | pictilisib -0.002

Quoted from the results shown (2 entries):
MRPS18B (UniProt Q9Y676)
inactive: saracatinib -0.038 | sotrastaurin 0.082 | Tubastatin A 0.125 | [1] 0.007 | defactinib -0.016 | rucaparib 0.065 | [2] 0.225 | encorafenib 0.034 | [3] -0.027 | [4] 0.011 | filanesib 0.065 | zotarolimus 0.035 | idasanutlin -0.205 | alisertib 0.069 | [5] 0.024 | gefitinib 0.078 | [6] 0.018 | lapatinib -0.005 | pictilisib -0.106

MRPS6 (UniProt P82932)
active: idasanutlin -0.275
inactive: saracatinib -0.197 | sotrastaurin -0.058 | Tubastatin A 0.011 | [1] -0.003 | defactinib -0.023 | rucaparib 0.056 | [2] 0.092 | encorafenib 0.016 | [3] -0.126 | [4] 0.204 | filanesib -0.019 | zotarolimus 0.038 | alisertib 0.029 | [5] 0.012 | gefitinib -0.051 | [6] -0.081 | lapatinib 0.035 | pictilisib -0.003

More records

MVB12A (UniProt Q96EY5)
inactive: saracatinib 0.011 | sotrastaurin 0.003 | Tubastatin A 0.014 | [1] 0.009 | defactinib -0.082 | rucaparib 0.02 | [2] -0.023 | encorafenib 0.034 | [3] -0.159 | [4] -0.231 | filanesib -0.059 | idasanutlin 0.037 | alisertib 0.007 | [5] 0.012 | gefitinib -0.009 | [6] -0.044 | lapatinib 0.002 | pictilisib -0.007

MTOR (UniProt P42345)
inactive: saracatinib -0.076 | sotrastaurin 0.088 | Tubastatin A 0.002 | [1] -0.005 | defactinib -0.09 | rucaparib 0 | [2] -0.009 | encorafenib 0.041 | [3] -0.02 | [4] 0.002 | filanesib -0.112 | idasanutlin -0.09 | alisertib -0.017 | [5] -0.012 | gefitinib -0.018 | [6] -0.019 | lapatinib 0.014 | pictilisib 0.019
active: zotarolimus -0.308

MRPS12 (UniProt O15235)
inactive: saracatinib -0.19 | sotrastaurin -0.068 | Tubastatin A -0.02 | [1] -0.017 | defactinib 0.119 | rucaparib 0.299 | [2] 0.233 | encorafenib 0.105 | [3] 0.048 | [4] 0.018 | filanesib 0.074 | zotarolimus 0.039 | idasanutlin -0.162 | alisertib -0.03 | [5] -0.088 | gefitinib -0.078 | [6] -0.062 | lapatinib 0.082 | pictilisib -0.177

MT-ND4 (UniProt P03905)
inactive: saracatinib 0.048 | sotrastaurin -0.025 | Tubastatin A 0.061 | [1] 0.053 | defactinib -0.143 | rucaparib -0.077 | [2] -0.145 | encorafenib 0.058 | [3] 0.057 | [4] -0.021 | filanesib -0.009 | zotarolimus -0.069 | idasanutlin -0.147 | alisertib -0.02 | [5] -0.088 | gefitinib 0.003 | [6] 0.046 | lapatinib 0.013 | pictilisib -0.214

MTMR14 (UniProt Q8NCE2)
inactive: saracatinib -0.037 | sotrastaurin -0.042 | Tubastatin A 0 | [1] 0.008 | defactinib -0.058 | rucaparib -0.017 | [2] -0.064 | encorafenib -0.026 | [3] 0.038 | [4] 0.007 | filanesib 0.026 | zotarolimus -0.04 | idasanutlin 0.02 | alisertib -0.04 | [5] 0.069 | gefitinib -0.02 | [6] 0.017 | lapatinib -0.075 | pictilisib 0.083

MYH10 isoform 3 (UniProt P35580)
inactive: saracatinib 0.019 | sotrastaurin -0.058 | Tubastatin A 0.002 | [1] 0.024 | defactinib -0.039 | rucaparib -0.056 | [2] -0.005 | encorafenib 0.017 | [3] -0.023 | [4] 0.092 | filanesib -0.116 | zotarolimus 0.011 | idasanutlin -0.065 | alisertib -0.025 | [5] 0.036 | gefitinib -0.005 | [6] -0.007 | lapatinib -0.006 | pictilisib -0.033

MT-ATP6 (UniProt P00846)
inactive: saracatinib 0.253 | sotrastaurin -0.059 | Tubastatin A 0.122 | [1] -0.018 | defactinib -0.095 | rucaparib 0.06 | [2] -0.176 | encorafenib 0.016 | [3] 0.05 | [4] -0.018 | filanesib -0.036 | zotarolimus -0.022 | idasanutlin -0.084 | alisertib -0.05 | [5] 0.133 | gefitinib 0.05 | [6] 0.055 | lapatinib -0.105 | pictilisib 0.208

MRPS22 (UniProt P82650)
inactive: saracatinib -0.098 | sotrastaurin -0.122 | Tubastatin A -0.006 | [1] -0.038 | defactinib 0.058 | rucaparib 0.143 | [2] 0.169 | encorafenib 0.064 | [3] -0.051 | [4] 0.041 | filanesib 0.05 | zotarolimus 0.071 | alisertib 0.015 | [5] 0.019 | gefitinib -0.017 | [6] -0.019 | lapatinib 0.038 | pictilisib -0.03
active: idasanutlin -0.301

MSH3 (UniProt P20585)
inactive: saracatinib -0.013 | sotrastaurin -0.003 | Tubastatin A 0.045 | [1] -0.026 | defactinib 0.015 | rucaparib 0.031 | [2] -0.011 | encorafenib 0.069 | [3] -0.02 | [4] -0.074 | filanesib 0.005 | zotarolimus 0.036 | idasanutlin -0.004 | alisertib 0.008 | [5] 0.093 | gefitinib 0.005 | [6] 0 | lapatinib 0.042 | pictilisib -0.006

MUL1 (UniProt Q969V5)
inactive: saracatinib 0.054 | sotrastaurin 0.079 | Tubastatin A 0.047 | [1] 0.056 | defactinib 0.059 | rucaparib 0.072 | [2] -0.018 | encorafenib -0.074 | [3] 0.079 | [4] -0.044 | filanesib 0.042 | zotarolimus -0.064 | idasanutlin -0.052 | alisertib 0.069 | [5] -0.05 | gefitinib 0.017 | [6] -0.08 | lapatinib 0.006 | pictilisib 0.006
